The values below come from paper PMC6911044.

No constants are given. Whether binding was seen depends on the method and setting. Binding can be weak; no strength is given. Sequences can lack the tags named with a protein. For part of these data: Binding seen in cells or lysates may run through a third protein.

For test [1], the target named is T1, FLAG-tagged Su(Hw), expressed in S2 cells (Drosophila) (UniProt P08970).
T1 sequence: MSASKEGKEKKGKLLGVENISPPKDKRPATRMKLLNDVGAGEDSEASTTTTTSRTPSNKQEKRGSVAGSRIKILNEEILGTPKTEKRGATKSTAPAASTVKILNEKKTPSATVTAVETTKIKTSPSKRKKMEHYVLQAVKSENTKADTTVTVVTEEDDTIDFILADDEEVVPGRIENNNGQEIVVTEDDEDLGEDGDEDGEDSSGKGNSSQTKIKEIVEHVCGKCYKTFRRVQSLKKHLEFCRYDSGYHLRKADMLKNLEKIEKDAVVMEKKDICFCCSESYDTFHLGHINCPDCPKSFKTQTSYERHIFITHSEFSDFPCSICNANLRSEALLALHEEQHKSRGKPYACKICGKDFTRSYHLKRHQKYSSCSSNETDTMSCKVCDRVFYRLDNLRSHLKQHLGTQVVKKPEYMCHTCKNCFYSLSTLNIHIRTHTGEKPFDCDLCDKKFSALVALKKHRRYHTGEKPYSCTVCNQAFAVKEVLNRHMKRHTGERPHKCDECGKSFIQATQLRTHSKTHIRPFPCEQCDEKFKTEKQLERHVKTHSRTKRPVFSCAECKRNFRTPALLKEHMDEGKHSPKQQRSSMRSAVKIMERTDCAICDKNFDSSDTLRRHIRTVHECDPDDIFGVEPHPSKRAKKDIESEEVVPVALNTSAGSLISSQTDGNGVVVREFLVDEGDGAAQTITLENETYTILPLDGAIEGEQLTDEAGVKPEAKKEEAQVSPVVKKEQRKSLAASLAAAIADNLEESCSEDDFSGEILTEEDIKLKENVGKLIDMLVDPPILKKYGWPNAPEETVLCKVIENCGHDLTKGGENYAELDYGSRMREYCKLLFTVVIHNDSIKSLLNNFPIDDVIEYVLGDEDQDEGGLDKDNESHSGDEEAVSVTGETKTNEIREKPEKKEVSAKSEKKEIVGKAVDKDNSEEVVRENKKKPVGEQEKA
The test can be described thus: co-IP; co-immunoprecipitation between HIPP1 and FLAG-tagged proteins expressed in S2 cells.

Test [2] addresses T2, FLAG-tagged CP190, full-length, expressed in S2 cells (Drosophila) (UniProt Q24478).
T2 sequence: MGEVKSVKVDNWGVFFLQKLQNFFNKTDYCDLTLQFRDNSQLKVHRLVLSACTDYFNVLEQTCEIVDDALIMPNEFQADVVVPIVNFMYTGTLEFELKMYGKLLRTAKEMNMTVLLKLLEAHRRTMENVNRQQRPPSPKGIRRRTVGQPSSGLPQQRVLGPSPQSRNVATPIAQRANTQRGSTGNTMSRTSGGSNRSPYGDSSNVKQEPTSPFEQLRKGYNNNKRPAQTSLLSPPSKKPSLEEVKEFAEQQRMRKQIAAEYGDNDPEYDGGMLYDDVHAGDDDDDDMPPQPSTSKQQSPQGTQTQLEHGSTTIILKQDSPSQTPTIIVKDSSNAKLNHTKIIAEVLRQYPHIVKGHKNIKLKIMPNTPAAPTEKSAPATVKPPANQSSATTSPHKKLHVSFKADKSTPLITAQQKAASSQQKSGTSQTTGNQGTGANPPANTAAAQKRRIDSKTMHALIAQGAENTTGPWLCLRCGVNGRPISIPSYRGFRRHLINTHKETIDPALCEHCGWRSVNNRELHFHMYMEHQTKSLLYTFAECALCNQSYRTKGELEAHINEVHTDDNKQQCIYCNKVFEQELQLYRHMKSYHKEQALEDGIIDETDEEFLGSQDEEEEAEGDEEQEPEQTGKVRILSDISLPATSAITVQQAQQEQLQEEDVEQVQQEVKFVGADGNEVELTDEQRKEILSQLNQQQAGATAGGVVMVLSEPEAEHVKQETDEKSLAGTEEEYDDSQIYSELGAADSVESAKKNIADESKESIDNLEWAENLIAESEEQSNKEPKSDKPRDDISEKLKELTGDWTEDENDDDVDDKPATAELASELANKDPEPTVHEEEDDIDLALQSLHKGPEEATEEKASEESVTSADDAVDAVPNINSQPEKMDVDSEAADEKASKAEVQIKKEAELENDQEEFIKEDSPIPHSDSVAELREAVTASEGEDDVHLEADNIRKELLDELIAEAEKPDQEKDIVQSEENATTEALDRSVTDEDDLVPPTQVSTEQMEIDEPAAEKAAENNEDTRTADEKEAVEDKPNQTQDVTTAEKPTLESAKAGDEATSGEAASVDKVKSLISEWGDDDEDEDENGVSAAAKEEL
Described as above.

Test [3] addresses T3, Su(Hw), GST pull-down construct (Drosophila) (UniProt P08970).
T3 sequence: T1 sequence
The test can be described thus: pull-down; GST pull-down, performed as described previously (ref. 19); which partner carried GST is not given.

Test [4] has as its target T4, CP190, GST pull-down construct (Drosophila) (UniProt Q24478).
T4 sequence: T2 sequence
The test is described as above.

Test [5] concerns the target T5, CP190, two-hybrid fusion (Drosophila) (UniProt Q24478).
T5 sequence: T2 sequence
The test can be described thus: two-hybrid; yeast two-hybrid with GAL4 fusions, in triplicate; performed as described previously (ref. 19).

The target in test [6] is T6, Suppressor of Hairy-wing [Su(Hw)], two-hybrid fusion (Drosophila) (UniProt P08970).
T6 sequence: T1 sequence
The description is as above.

Consider HIPP1 in S2 cells (co-IP) (Drosophila), for which the binding entry in test [1] and in test [2] was “binds” throughout. As to “HIPP1 crotonase domain, GST pull-down construct (Drosophila) (domain or fragment)”, the binding entry in test [3] is reported as “binds”. Take “HIPP1 N-terminal domain, GST pull-down construct (Drosophila) (domain or fragment)”: in test [4], the binding result is “binds”.

For the substance “HIPP1 N-terminal domain, two-hybrid fusion (Drosophila) (domain or fragment)”, in test [5], the binding entry is on record as “binds”.

As for “HIPP1 crotonase domain, two-hybrid fusion (Drosophila) (domain or fragment)”, the binding entry in test [6] is recorded as “binds”.
